Laboratory results from patent US20170165259A1, “COMBINED MODULATION OF IRE1” (THE REGENTS OF THE UNIVERSITY OF CALIFORNIA, priority 2014, published 2017).
“Also recorded” adds a separate entry of the source. At least one structure is not confirmed: it was looked up by name or label, or the drawing left a doubt.

Chains of the proteins cited; added tags and fusions are not shown. Residues count along the entry.
UniProt O75460, 469-977 I642G: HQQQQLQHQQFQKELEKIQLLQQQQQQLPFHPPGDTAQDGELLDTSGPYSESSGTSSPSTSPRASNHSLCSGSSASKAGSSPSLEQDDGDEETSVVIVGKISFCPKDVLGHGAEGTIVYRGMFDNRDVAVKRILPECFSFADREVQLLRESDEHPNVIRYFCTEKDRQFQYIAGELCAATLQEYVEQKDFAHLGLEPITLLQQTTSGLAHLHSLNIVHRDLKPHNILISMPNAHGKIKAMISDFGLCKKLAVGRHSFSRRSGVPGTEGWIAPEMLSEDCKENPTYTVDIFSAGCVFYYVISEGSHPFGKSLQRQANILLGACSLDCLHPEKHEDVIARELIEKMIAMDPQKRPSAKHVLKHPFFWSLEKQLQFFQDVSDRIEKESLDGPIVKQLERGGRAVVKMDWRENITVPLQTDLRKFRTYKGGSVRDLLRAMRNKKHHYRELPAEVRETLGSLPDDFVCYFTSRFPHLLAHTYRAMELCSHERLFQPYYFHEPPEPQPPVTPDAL
UniProt O75460, 469-977: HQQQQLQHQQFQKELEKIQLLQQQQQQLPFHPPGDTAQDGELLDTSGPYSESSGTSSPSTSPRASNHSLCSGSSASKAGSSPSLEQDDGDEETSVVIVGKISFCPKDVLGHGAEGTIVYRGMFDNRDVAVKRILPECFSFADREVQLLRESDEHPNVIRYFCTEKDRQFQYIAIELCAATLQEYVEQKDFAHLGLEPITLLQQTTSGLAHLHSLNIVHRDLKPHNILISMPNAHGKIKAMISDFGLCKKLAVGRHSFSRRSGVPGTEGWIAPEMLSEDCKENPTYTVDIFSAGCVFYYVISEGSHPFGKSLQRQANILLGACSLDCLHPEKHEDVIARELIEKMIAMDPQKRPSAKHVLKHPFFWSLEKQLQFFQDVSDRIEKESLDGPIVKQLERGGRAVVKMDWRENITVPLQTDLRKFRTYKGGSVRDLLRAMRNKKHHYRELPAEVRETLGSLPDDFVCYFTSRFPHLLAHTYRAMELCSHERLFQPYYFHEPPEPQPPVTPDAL

Tests used:
[1] = biological target: T1, IRE1α* (I642G) (Homo sapiens, UniProt O75460, I642G); assay: 1NM-PP1-induced XBP1 RNA cleavage in vitro; assay type: biochemical
T1 construct: human IRE1α (residues 469-977, IRE1α*) or equivalent IRE1α mutants; made in house; host or cells: SF9 insect cells, Bac-to-Bac baculovirus

[2] = system: Erk2, JNK2, JNK3, PKA, and Piml; assay: Catalytic activity of Ser/Thr kinases in vitro; assay type: biochemical
[3] = system: C57BL/6 pancreatic islets; assay: C57BL/6 pancreatic islet explants under Tm (TXNIP, TUNEL, GSIS, EdU); assay type: cell-based, mouse
[4] = biological target: T2, IRE1α* (Homo sapiens, UniProt O75460); assay: XBP1 RNA minisubstrate (FRET-quenched) RNase assay; assay type: biochemical; conditions: in vitro
T2 construct: human IRE1α (residues 469-977, IRE1α*); made in house; host or cells: SF9 insect cells, Bac-to-Bac baculovirus

[5] = system: endogenous IRE1α; assay: XBP1 mRNA splicing in INS-1 cells under ER stress; assay type: cell-based, rat; conditions: by Tm
Method: FIGS. 5A-5E. […] (FIG. 5C) EtBr-stained agarose gel of XBP1 complementary DNA (cDNA) amplicons from the INS-1 cells described in (B).
To further explore how IRE1α modulators affect the kinase and RNase activities of endogenous IRE1α under ER stress, in vivo studies using INS-1 rat insulinoma cell lines, which are derived from insulin-producing pancreatic β-cell tumors and contain large well-developed ERs, were conducted.

CC(C)(C)c1nc(-c2ccc(NC(=O)Nc3cccc(C(F)(F)F)c3)c3ccccc23)c2c(N)nccn12 [KIRA6, 1-(4-(8-amino-3-tert-butylimidazo[1,5-a]pyrazin-1-yl)naphthalen-1-yl)-3-(3-(trifluoromethyl)phenyl)urea] was tested, and the “1NM-PP1-induced XBP1 RNA cleavage by IRE1α* (I642G)” value [1] was “reduces 1NM-PP1-induced XBP1 RNA cleavage by IRE1α* (I642G) in vitro”, the “JNK activity in vitro” value ([2]; direct inhibition) was “inability to directly inhibit JNK activity in vitro” and the “activity of a panel of Ser/Thr kinases” value ([2]; in vitro, including JNK2 and 3) was “does not inhibit the activity of a panel of Ser/Thr kinases (including JNK2 and 3) in vitro”. The “glucose-stimulated insulin secretion (GSIS)” value ([3]; C57BL/6 islets under Tm) was “preserves glucose-stimulated insulin secretion (GSIS)”, the “TXNIP induction in islets” value ([3]; by Tm) was “Inhibits TXNIP induction by Tm in murine C57BL/6 pancreatic islets” and the “double-positive Nkx6.1/EdU β-cells in islets” value ([3]; under ER stress) was “Prevents loss”. For the same compound, the “TUNEL staining of β-cells, C57BL/6 islets” value ([3]; under Tm) was “cytoprotective effects; also recorded: Reduces TUNEL staining of β-cells”, the “IRE1α* RNase activity (XBP1 RNA cleavage), effect in words” value [4] was “dose-dependently inhibits; also recorded: inhibits IRE1α* RNase and kinase activities with similar IC50s; also recorded: dose-dependently reduces” and the “XBP1 mRNA splicing in INS-1 cells” value [5] was “inhibits endogenous IRE1α—mediated XBP1 mRNA splicing provoked by Tm; also recorded: inhibits IRE1α auto-phosphorylation by Tg and XBP1 mRNA splicing by Tm in a dose-dependent manner”.
